# Results from one PubChem assay

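Genome-wide siRNA knockdown in TC32 Ewing sarcoma cells, comparing luciferase light from an NR0B1-promoter reporter with a CMV-promoter reporter 48 hours after transfection. Each siRNA was applied at 20 nM. A z-score of the log NR0B1-over-CMV signal, less the median of siRNAs with the same seed; more negative means a stronger specific loss of the NR0B1 reporter.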

This is part of the screen; most of the strongest results are not listed here. Sequences are the guide (antisense) strand, without overhang.

Sequence	gene	seed-corrected z-score
UUGUUGAAAAUCUCUUUGC	EXOSC5	1.256
UCCUUGACCAUCCAUGUUG	IL6R	-0.7327
UUUCGAGCCAGAAAGCAGC	NEU4	-0.4999
UAGUGAUUCAUAGCACCUC	IGHV4OR15-8	0.04755
UGGUUUUCUAGUAUAUACC	RFPL4B	0.003844
UUAUUGCCCUCAGUUAUGG	NCOA7	-0.2502
AUAUCGAUAGAGACGAUUC	ANO10	0.07096
AAAGUUGUUGAUGAAUGGG	LOC729722	-0.0003992
UUCUUGACCACAAGAGUGU	HNRNPC	-0.1408
UUUAGUGCCCAGUUGCUCC	CD1C	-0.06586
UACGCUCUAUGACUAAAGG	ZFP69	0.02638
AAGGUAGAUAGAGGGUUGG	MUC3B	4.072
AAAGGUACCGUCAUGGUUC	FLNC	-0.0933
UUCGUGCCUCCGGAGAUUG	MAZ	-0.328
UUUAUUAAUAUAGCCAUCU	YDJC	0.1332
UCACUCAUCAUACUAAUGU	C1orf115	0.1339
UUUUCGUCCACGAUAGUCU	PHOSPHO1	0.2315
UCAGGUAUCGGUACCAGAG	XAB2	-1.09
UAUCGUGUUGUGCAGUCUC	TMEM11	0.1169
AAUACUAUUAUUCCUAGUC	RNF166	0.2736
ACAGUUAUAUGUGCUCAGG	ART4	0.9652
UAUCCAACCACAACUGCAG	KDM1A	-0.8629
UUUUCCACCAAAGGUAGGG	ELOVL1	-0.08796
UUGCGGUAGACAGGUUUGG	C15orf39	-1.196
UUUAAGCGCAUUAUAAGCC	FAM201A	0.7287
UGAAGACCUACCAAUGACC	AATF	0.08612
UUCGAUGAAAGACUCCUCA	SNX12	-0.4906
AAACAACUAGAUCUGAUGC	RPSAP22	0.1765
UGUUAUAGGAGCAUGAUUC	SEMA3C	0.86
UGUUGUUCCAUCCACAUCC	ITGA7	0.431
UUCUUGUUGUCACAGGUCC	HIST1H2APS6	-1.155
UCAUAUCUGAGUUUAACUG	EID3	-1.713
UACCAGUUGCUGCAAAUCC	LINC00951	-0.9339
AAGUCUUAACCACUAAUCG	OSCAR	0.7882
AAAGAUACUGGGUAUAUGU	SOCS1	0.4877
UUACUGGUGAUUGCGAAGU	TIFAB	-0.4622
AACUCGCACACGUUGCAGC	ZNF319	-0.4908
UCUGAGUACAAAGUCGUGC	HES5	0.5068
UUGAGCUCCGUGUUGACCU	CHRM1	0.4565
UGUAGGCACACUUCAAAUG	C19orf54	0.4979
UUCUCUAUGAUCUUCUUCC	TRPV4	-0.3416
AGCAGGUCAAGAUAGGUGC	CTSC	-0.7539

Repeated from the top, 2 entries:

Sequence,gene,seed-corrected z-score
UUGUUGAAAAUCUCUUUGC,EXOSC5,1.256
UCCUUGACCAUCCAUGUUG,IL6R,-0.7327

From PubChem BioAssay record AID1159506 (NCATS, 2015).